# Data source: PubChem BioAssay AID743121 (NCATS, 2013)
# Test: 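Partners whose loss is lethal together with topoisomerase I blockade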 (primary screen)
# Cells: MDA-MB-231 cells, a human breast cancer line
# Knock-down reagent: single siRNA against human genes, 20 nM siRNA (0.8 pmol per well)
# Timing: 120 h (drug added 48 h after transfection, read 72 h later)
# Conditions: camptothecin 20 nM (about EC30) for 72 h; vehicle 0.1% DMSO in parallel plates
# Detection: 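CellTiter-Glo ATP signal, scaled to control siRNA as percent viability; sensitisation given as log2 of untreated divided by camptothecin-treated viability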
# Reading the numbers: log2 vehicle/camptothecin viability: higher = stronger sensitisation to camptothecin
# Call rule: 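Each gene scored by redundant siRNA activity (RSA) over its individual siRNA ratios; a gene is called active at p < 0.001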
# The deposit covers about 26,000 reagents; shown is a part drawn at random. Of all reagents, 167 (0.63%) got an active call. 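Calls are per gene from RSA p-values that are not deposited; an individual active-marked siRNA can sensitise only weakly.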 Reagents against one gene are numbered here. Further read-outs or replicates are left out here. Reagent sequences are not shown.
gene knocked down,reagent no.,log2 vehicle/camptothecin viability,call
SMC1A (GeneID 8243),1,0.423,inactive
SMC1A (GeneID 8243),2,0.642,inactive
SMC1A (GeneID 8243),3,0.000688,inactive
SMC1A (GeneID 8243),4,-0.268,inactive
HSD17B8 (GeneID 7923),1,0.0911,inactive
HSD17B8 (GeneID 7923),2,-0.0514,inactive
HSD17B8 (GeneID 7923),3,-0.277,inactive
HSD17B8 (GeneID 7923),4,-0.138,inactive
JOSD2 (GeneID 126119),1,0.0383,inactive
JOSD2 (GeneID 126119),2,-0.19,inactive
JOSD2 (GeneID 126119),3,0.372,inactive
MED17 (GeneID 9440),1,0.14,inactive
MED17 (GeneID 9440),2,0.672,inactive
MED17 (GeneID 9440),3,0.0893,inactive
PNMT (GeneID 5409),1,-0.455,inactive
PNMT (GeneID 5409),2,-0.137,inactive
PNMT (GeneID 5409),3,-0.516,inactive
PNMT (GeneID 5409),4,-0.26,inactive
ETFB (GeneID 2109),1,-0.0503,inactive
ETFB (GeneID 2109),2,0.0609,inactive
ETFB (GeneID 2109),3,0.117,inactive
LEFTY1 (GeneID 10637),1,-0.00838,inactive
LEFTY1 (GeneID 10637),2,-0.147,inactive
LEFTY1 (GeneID 10637),3,-0.0201,inactive
OPRD1 (GeneID 4985),1,-0.165,inactive
OPRD1 (GeneID 4985),2,0.609,inactive
OPRD1 (GeneID 4985),3,-0.439,inactive
OPRD1 (GeneID 4985),4,0.022,inactive
FBXL20 (GeneID 84961),1,-0.164,inactive
FBXL20 (GeneID 84961),2,0.096,inactive
FBXL20 (GeneID 84961),3,1.42,inactive
FBXL20 (GeneID 84961),4,-0.337,inactive
LYL1 (GeneID 4066),1,-0.212,inactive
LYL1 (GeneID 4066),2,-0.284,inactive
LYL1 (GeneID 4066),3,-0.0224,inactive
LYL1 (GeneID 4066),4,-0.196,inactive
AGER (GeneID 177),1,-0.315,inactive
AGER (GeneID 177),2,0.0351,inactive
AGER (GeneID 177),3,-0.388,inactive
AGER (GeneID 177),4,0.336,inactive
FBH1 (GeneID 84893),1,-0.395,inactive
FBH1 (GeneID 84893),2,-0.298,inactive
FBH1 (GeneID 84893),3,-0.561,inactive
FBH1 (GeneID 84893),4,0.0818,inactive
DPYS (GeneID 1807),1,0.00673,inactive
DPYS (GeneID 1807),2,-0.125,inactive
DPYS (GeneID 1807),3,-0.013,inactive
DPYS (GeneID 1807),4,-0.124,inactive
